Some results were stated once for a whole list of compounds, not compound by compound.
How the values were obtained:
Assay type in all cases: in vivo
[1] = test system: Orchid Thrips (dichromothrips corbetti); assay: Orchid thrips, floral-immersion technique; conditions: 300 ppm; adult thrips on dipped orchid petals; 72 hours after treatment; in comparison with untreated controls
[2] = test system: Green Peach Aphid (Myzus persicae); assay: Green peach aphid, systemic test on artificial diet in microtiter plates; conditions: 2500 ppm; adult aphids on treated artificial diet; 3 days; in comparison with untreated controls
In short: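 Adult aphids (5-8 per well) fed through a membrane on artificial diet containing compound formulated in 75% water/25% DMSO, with two replications per concentration. Incubation lasted 3 days at about 23±1° C and 50±5% relative humidity. Mortality and fecundity were then assessed visually.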

[3] = test system: Tobacco Budworm (Heliothis virescens); assay: Tobacco budworm, insect diet microtiter plate test; conditions: 2500 ppm; eggs on sprayed insect diet; egg and larval mortality after 5 days; in comparison with untreated controls
[4] = test system: Neotropical Brown Stink Bug (Euschistus heros); assay: Neotropical brown stink bug, sprayed soybean pods in cups; conditions: 100 ppm; adults on soybean pods; after 5 days; in comparison with untreated controls
Method: B.12 Neotropical Brown Stink Bug (Euschistus heros)
(§1) The active compound was dissolved at the desired concentration in a mixture of 1:1 (vol:vol) distilled water: acetone. Surfactant (Kinetic HV) was added at a rate of 0.01% (vol/vol). The test solution was prepared at the day of use.
Soybean pods were placed in microwavable plastic cups and inoculated with ten adult stage E. heros. Using a hand atomizer, approximately 1 ml solution is sprayed into each cup, insects and food present. A water source was provided (cotton wick with water). Each treatment was replicated 2-fold. Assay arenas were kept at about 25° C. Percent mortality was recorded after 5 days.

[5] = test system: Southern Armyworm (Spodoptera eridania); assay: Southern armyworm, sprayed lima bean plants; conditions: 1 ppm; larvae on sprayed lima bean plants; 4 days after treatment; in comparison with untreated controls
[6] = test system: Diamond Back Moth (Plutella xylostella); assay: Diamond back moth, cabbage leaf dip test; conditions: 300 ppm; 3rd instar larvae on dipped cabbage leaves; 72 hours after treatment; in comparison with untreated controls
[7] = test system: Green Soldier Stink Bug (Nezara viridula); assay: Green soldier stink bug, sprayed soybean pods in Petri dishes; conditions: 300 ppm; late 3rd instar on soybean pods; after 5 days; in comparison with untreated controls
[8] = test system: Brown Marmorated Stink Bug (Halyomorpha halys); assay: Brown marmorated stink bug, sprayed peanuts and soybean seeds in cups; conditions: 100 ppm; adults on peanuts and soybean seeds; after 5 days; in comparison with untreated controls
Method: B.13 Brown Marmorated Stink Bug (Halyomorpha halys)
as §1
Row peanuts and soybean seeds were placed into microwavable plastic cups and inoculated with five adult stage H. halys. Using a hand atomizer, approximately 1 ml solution is sprayed into each cup, insects and food present. A water source was provided (cotton wick with water). Each treatment is replicated 4-fold. Assay arenas are kept at about 25° C. Percent mortality was recorded after 5 days.

[9] = test system: Rice Green Leafhopper (Nephotettix virescens); assay: Rice green leafhopper, sprayed rice seedlings; conditions: 300 ppm; adults on sprayed rice seedlings; after 72 hours; in comparison with untreated controls

Measured: mortality

O=C(NCC1CC1)c1ccc(C2=NCC(c3cc(Cl)c(F)c(Cl)c3)(C(F)(F)F)C2)c2c1CCC2 (racemic) [Compound 2-6]
at least 75%: [1] | [2] | [3] | [4] | [5] | [6] | [7] | [8] | [9]

O=C(CNC(=O)c1ccc(C2=NCC(c3cc(Cl)c(F)c(Cl)c3)(C(F)(F)F)C2)c2c1CCC2)NCC(F)(F)F (racemic) [Compound 2-7]
at least 75%: [1] | [2] | [3] | [4] | [5] | [6] | [7] | [8] | [9]

O=C(NCc1ccccn1)c1ccc(C2=NCC(c3cc(Cl)c(F)c(Cl)c3)(C(F)(F)F)C2)c2c1CCC2 (racemic) [Compound 2-9]
at least 75%: [1] | [2] | [3] | [4] | [5] | [6] | [7] | [8] | [9]

O=C(NCc1ncccn1)c1ccc(C2=NCC(c3cc(Cl)c(F)c(Cl)c3)(C(F)(F)F)C2)c2c1CCC2 (racemic) [Compound 2-10]
at least 75%: [1] | [2] | [3] | [4] | [5] | [6] | [7] | [8] | [9]

O=C(NCc1ccccn1)c1ccc(C2=NOC(c3cc(Cl)c(F)c(Cl)c3)(C(F)(F)F)C2)c2c1CCC2 (centres unmarked) [Compound 1-6]
at least 75%: [1] | [2] | [3] | [4] | [5] | [6] | [7] | [8] | [9]

O=C(NCc1ncccn1)c1ccc(C2=NOC(c3cc(Cl)c(F)c(Cl)c3)(C(F)(F)F)C2)c2c1CCC2 (centres unmarked) [Compound 1-7]
at least 75%: [1] | [2] | [3] | [4] | [5] | [6] | [7] | [8] | [9]

O=C(NCC(F)(F)F)c1ccc(C2=NOC(c3cc(Cl)c(F)c(Cl)c3)(C(F)(F)F)C2)c2c1CCC2 (centres unmarked) [Compound 1-12]
at least 75%: [1] | [2] | [3] | [4] | [5] | [6] | [7] | [8] | [9]

C#CCNC(=O)c1ccc(C2=NOC(c3cc(Cl)c(F)c(Cl)c3)(C(F)(F)F)C2)c2c1CCC2 (centres unmarked) [Compound 1-14]
at least 75%: [1] | [2] | [3] | [4] | [5] | [6] | [7] | [8] | [9]

O=C(NCC1CCS1(=O)=O)c1ccc(C2=NOC(c3cc(Cl)c(F)c(Cl)c3)(C(F)(F)F)C2)c2c1CCC2 (centres unmarked) [Compound 1-21]
at least 75%: [1] | [2] | [3] | [4] | [5] | [6] | [7] | [8] | [9]

CON=CNC(=O)c1ccc(C2=NOC(c3cc(Cl)c(F)c(Cl)c3)(C(F)(F)F)C2)c2c1CCC2 (centres unmarked) [Compound 1-23]
at least 75%: [1] | [2] | [3] | [4] | [5] | [6] | [7] | [9]

CON=CNC(=O)c1ccc(C2=NOC(c3cc(Cl)cc(Cl)c3)(C(F)(F)F)C2)c2c1CCC2 (centres unmarked) [Compound 1-26]
at least 75%: [1] | [2] | [3] | [4] | [5] | [6] | [7] | [8] | [9]

O=C(CNC(=O)c1ccc(C2=NOC(c3cc(Cl)cc(Cl)c3)(C(F)(F)F)C2)c2c1CCC2)NCC(F)(F)F (centres unmarked) [Compound 1-28]
at least 75%: [1] | [2] | [3] | [4] | [5] | [6] | [7] | [8] | [9]

O=C(NCc1ncccn1)c1ccc(C2=NOC(c3cc(Cl)cc(Cl)c3)(C(F)(F)F)C2)c2c1CCC2 (centres unmarked) [Compound 1-30]
at least 75%: [1] | [2] | [3] | [4] | [5] | [6] | [7] | [8] | [9]

O=C(NC1CC1)c1ccc(C2=NOC(c3cc(Cl)cc(Cl)c3)(C(F)(F)F)C2)c2c1CCC2 (centres unmarked) [Compound 1-31]
at least 75%: [1] | [2] | [3] | [4] | [5] | [6] | [7] | [8] | [9]

O=C(NCc1cscn1)c1ccc(C2=NOC(c3cc(Cl)cc(Cl)c3)(C(F)(F)F)C2)c2c1CCC2 (centres unmarked) [Compound 1-32]
at least 75%: [1] | [2] | [3] | [4] | [5] | [6] | [7] | [8] | [9]

Source: patent US10226045B2, “Azoline compounds” (priority 2014, dated 2019)
